This is one part of the list.
Each target was assayed with Cc1cc(ccc1-c1ccccc1)C(=O)N1CCCN(CC1)C(=O)CCl [compound 10] (assay: probe-labelled cysteine peptide fold change vs DMSO (competition) (log2 fold change); higher = less target engagement (more negative = stronger competition)). Details: 10 µM; THP-1; incubation time: 4 h.
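Note: competitive profiling in live THP-1 cells: cysteine peptides tagged with an iodoacetamide desthiobiotin (IA-DTB) probe, intensity after compound treatment relative to DMSO-treated cells.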

Sequences of proteins named here, by UniProt entry; tags and fusion partners are left off. A change or cut given only in a name is not applied to a line headed by its entry.
UniProt P21283, whole entry, looked up: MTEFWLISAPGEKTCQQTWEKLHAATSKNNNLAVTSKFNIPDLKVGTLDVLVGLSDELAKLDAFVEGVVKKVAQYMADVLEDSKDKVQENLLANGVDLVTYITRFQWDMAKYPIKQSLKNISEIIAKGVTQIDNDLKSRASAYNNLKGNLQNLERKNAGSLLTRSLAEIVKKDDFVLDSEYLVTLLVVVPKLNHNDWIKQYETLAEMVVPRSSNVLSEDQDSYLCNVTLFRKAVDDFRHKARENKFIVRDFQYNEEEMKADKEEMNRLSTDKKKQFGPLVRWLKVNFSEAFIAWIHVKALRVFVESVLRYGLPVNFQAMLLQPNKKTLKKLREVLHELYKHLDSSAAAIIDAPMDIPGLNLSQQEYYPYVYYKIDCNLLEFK
UniProt Q6PL18: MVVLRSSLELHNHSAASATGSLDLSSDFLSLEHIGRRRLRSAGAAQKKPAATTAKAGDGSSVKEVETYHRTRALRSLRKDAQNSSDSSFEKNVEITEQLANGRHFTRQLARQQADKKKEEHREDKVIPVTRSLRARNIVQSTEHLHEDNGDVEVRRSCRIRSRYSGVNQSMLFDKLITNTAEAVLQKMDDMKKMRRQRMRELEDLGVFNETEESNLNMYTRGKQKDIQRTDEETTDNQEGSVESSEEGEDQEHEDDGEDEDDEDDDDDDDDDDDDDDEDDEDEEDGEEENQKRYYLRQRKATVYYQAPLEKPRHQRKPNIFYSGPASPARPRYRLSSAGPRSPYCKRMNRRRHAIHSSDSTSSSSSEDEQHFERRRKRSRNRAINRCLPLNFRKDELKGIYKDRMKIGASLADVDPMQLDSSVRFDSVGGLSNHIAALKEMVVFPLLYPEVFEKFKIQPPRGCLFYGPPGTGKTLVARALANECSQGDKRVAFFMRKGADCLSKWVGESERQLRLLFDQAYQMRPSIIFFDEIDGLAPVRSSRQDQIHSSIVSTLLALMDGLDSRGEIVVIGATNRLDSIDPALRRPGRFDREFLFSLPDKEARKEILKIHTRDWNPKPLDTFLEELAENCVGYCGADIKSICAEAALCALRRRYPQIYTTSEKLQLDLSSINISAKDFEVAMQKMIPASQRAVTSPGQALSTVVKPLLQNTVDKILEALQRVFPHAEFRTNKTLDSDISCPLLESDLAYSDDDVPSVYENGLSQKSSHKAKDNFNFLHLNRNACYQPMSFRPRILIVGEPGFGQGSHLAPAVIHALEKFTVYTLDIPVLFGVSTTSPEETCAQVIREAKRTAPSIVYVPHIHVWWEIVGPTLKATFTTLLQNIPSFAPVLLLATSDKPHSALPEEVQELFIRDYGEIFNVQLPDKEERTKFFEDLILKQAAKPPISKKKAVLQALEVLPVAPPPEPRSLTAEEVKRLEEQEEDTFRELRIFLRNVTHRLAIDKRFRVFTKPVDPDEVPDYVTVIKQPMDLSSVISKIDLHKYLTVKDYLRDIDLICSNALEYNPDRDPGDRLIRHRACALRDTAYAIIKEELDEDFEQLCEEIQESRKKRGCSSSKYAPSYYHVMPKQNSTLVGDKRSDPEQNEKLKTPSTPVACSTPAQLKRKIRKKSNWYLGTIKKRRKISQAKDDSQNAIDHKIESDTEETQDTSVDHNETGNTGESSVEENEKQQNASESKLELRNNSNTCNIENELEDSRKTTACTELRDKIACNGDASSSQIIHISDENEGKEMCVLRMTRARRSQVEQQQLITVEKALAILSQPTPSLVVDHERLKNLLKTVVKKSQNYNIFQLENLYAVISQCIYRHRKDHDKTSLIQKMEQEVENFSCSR
UniProt O14983: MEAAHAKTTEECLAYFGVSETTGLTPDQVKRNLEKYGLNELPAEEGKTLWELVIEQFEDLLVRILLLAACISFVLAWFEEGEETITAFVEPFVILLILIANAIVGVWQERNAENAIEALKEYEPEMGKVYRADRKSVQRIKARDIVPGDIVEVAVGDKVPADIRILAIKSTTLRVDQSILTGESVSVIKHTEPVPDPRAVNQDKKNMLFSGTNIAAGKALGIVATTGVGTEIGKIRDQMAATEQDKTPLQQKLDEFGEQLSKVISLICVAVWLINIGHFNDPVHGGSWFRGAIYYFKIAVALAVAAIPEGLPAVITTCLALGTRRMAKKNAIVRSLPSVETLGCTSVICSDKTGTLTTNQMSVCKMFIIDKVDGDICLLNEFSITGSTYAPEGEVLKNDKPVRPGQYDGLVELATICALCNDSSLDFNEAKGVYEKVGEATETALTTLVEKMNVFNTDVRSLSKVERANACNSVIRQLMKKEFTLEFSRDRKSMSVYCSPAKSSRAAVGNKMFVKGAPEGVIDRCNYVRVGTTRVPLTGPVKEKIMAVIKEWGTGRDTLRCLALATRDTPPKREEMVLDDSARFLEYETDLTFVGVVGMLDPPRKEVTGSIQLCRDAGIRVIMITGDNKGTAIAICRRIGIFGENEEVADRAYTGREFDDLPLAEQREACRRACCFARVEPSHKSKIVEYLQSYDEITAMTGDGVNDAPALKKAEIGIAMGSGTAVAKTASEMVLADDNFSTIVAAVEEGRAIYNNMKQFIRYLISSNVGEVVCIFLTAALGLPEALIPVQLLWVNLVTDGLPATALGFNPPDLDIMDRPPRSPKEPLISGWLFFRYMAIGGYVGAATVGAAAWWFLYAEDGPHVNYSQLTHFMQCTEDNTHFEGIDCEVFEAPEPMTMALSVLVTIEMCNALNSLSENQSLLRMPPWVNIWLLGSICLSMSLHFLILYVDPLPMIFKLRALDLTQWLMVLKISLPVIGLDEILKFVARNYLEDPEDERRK
UniProt Q9H2C2: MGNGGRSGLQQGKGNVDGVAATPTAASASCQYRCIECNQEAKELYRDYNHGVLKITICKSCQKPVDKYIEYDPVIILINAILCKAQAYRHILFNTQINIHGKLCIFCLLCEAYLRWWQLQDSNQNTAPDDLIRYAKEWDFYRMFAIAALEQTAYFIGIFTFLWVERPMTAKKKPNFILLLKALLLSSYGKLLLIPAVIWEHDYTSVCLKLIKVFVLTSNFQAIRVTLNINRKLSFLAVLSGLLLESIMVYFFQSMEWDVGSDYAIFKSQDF
UniProt Q9HD20: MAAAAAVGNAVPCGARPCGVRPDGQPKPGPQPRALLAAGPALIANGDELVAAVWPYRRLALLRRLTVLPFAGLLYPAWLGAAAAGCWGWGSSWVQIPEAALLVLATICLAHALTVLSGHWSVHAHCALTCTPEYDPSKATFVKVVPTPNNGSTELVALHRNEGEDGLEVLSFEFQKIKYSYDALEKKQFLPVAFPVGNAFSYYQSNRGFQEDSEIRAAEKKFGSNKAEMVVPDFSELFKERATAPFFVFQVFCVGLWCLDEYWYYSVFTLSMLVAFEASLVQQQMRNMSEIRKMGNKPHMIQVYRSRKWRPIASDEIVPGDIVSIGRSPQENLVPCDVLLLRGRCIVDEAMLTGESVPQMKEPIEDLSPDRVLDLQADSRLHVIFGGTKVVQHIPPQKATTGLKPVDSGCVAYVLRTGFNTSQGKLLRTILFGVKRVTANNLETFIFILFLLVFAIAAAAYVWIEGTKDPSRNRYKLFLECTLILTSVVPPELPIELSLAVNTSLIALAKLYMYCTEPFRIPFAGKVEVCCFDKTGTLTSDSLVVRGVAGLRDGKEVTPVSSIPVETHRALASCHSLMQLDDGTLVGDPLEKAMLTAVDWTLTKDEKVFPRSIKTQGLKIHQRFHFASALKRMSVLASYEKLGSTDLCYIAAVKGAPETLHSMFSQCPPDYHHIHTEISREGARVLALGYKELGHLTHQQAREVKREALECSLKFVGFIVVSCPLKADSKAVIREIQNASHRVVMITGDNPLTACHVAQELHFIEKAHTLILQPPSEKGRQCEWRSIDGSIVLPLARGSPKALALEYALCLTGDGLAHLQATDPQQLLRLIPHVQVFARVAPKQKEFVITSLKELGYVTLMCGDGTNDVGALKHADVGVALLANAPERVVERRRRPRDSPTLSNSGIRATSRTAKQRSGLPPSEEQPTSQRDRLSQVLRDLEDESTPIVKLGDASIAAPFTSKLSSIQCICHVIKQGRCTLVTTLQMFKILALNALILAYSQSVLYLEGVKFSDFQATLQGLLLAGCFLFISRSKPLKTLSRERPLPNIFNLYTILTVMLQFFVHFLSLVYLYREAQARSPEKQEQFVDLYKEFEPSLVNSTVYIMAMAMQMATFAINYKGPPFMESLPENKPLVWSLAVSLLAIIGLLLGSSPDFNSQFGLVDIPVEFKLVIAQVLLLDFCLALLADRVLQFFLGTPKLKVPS
UniProt Q8N3C0, whole entry, looked up: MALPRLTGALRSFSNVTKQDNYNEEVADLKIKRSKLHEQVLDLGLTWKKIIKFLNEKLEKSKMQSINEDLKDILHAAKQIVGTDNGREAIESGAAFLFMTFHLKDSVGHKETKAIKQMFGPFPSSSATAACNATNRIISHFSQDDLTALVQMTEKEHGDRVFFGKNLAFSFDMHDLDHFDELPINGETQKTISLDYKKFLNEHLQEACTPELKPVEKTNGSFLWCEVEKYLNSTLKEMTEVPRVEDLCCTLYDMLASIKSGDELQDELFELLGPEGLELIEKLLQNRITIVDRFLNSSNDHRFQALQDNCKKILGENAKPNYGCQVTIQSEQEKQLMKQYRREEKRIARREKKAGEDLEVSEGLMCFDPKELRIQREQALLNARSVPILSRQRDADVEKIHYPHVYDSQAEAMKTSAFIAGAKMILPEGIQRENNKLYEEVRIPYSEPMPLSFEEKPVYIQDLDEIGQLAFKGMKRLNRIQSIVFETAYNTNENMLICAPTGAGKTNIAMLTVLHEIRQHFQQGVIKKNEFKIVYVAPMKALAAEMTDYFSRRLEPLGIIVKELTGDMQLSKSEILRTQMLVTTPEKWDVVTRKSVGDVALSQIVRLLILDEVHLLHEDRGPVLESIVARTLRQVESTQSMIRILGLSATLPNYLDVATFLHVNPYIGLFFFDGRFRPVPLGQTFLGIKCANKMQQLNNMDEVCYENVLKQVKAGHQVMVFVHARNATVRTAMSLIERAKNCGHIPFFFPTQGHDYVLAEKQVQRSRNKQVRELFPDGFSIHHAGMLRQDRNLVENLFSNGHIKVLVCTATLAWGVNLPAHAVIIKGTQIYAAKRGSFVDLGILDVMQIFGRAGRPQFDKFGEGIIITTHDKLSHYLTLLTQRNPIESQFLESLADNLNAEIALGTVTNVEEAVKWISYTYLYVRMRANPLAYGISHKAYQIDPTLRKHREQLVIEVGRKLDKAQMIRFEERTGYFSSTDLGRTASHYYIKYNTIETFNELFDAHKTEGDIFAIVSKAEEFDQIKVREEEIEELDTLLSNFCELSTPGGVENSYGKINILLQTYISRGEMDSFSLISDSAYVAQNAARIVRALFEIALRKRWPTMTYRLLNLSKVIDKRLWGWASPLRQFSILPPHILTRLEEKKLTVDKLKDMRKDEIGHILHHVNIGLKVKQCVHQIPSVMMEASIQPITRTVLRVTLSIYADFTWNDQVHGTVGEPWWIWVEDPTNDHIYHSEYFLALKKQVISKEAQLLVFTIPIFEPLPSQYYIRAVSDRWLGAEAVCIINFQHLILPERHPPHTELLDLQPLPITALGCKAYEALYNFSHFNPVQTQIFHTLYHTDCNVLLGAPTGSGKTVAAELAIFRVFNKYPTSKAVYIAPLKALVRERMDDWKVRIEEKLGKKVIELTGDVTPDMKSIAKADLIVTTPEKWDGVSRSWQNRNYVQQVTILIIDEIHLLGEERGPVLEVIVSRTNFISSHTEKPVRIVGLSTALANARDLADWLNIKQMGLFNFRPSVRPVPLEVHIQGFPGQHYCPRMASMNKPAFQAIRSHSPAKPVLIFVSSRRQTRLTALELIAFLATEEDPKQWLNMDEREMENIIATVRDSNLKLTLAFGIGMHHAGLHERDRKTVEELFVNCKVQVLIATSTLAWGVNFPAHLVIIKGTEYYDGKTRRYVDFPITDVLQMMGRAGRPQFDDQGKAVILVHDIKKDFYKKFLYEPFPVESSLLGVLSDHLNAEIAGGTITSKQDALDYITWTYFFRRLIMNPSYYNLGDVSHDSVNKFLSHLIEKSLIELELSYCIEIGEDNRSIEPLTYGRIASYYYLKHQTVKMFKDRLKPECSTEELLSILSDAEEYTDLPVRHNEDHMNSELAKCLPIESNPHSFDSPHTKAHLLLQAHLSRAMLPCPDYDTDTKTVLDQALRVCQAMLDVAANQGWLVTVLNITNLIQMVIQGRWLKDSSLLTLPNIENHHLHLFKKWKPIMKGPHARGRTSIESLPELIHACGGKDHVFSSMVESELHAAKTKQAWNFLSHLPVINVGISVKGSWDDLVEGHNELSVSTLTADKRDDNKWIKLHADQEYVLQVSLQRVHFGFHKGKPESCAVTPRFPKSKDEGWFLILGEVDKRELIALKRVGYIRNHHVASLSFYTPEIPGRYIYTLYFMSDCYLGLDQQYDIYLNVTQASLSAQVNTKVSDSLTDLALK

Target	probe-labelled cysteine peptide fold change
ATP6V1A_P38606_240+254_VLDALFPCVQGGTTAIPGAFGCGK (UniProt P38606)	0.143
ATP6V1C1_P21283_225_SSNVLSEDQDSYLCNVTLFR (UniProt P21283)	0.0607
ATP1A1_P05023_663_ACVVHGSDLK (UniProt P05023)	0.124
ATAD2_Q6PL18_484_ALANECSQGDKR (UniProt Q6PL18)	-0.164
ASPSCR1_Q9BZE9_127_ECLQHPGGATPVCVYTR (UniProt Q9BZE9)	0.0894
ATP2A1_O14983_561_CLALATR (UniProt O14983)	-0.0703
ARV1_Q9H2C2_37_CIECNQEAK (UniProt Q9H2C2)	0.0941
ATP6V0A1_Q93050_310_AIYHTLNLCNIDVTQK (UniProt Q93050)	0.0069
ASAP1_Q9ULH1_557_TCSTSSAK (UniProt Q9ULH1)	-0.0474
ASAP2_O43150_354_LNLLTCQVK (UniProt O43150)	0.315
ATP2A2_P16615_560_CLALATHDNPLR (UniProt P16615)	0.0438
ATP13A1_Q9HD20_862_ELGYVTLMCGDGTNDVGALK (UniProt Q9HD20)	0.0559
ASCC3_Q8N3C0_366_KAGEDLEVSEGLMCFDPK (UniProt Q8N3C0)	-0.217
ASCC3_Q8N3C0_1315_HPPHTELLDLQPLPITALGCK (UniProt Q8N3C0)	0.0925
ASB1_Q9Y576_36_EQFCDHPLEHCEDTR (UniProt Q9Y576)	-0.348
ATP13A1_Q9HD20_711_EALECSLK (UniProt Q9HD20)	-0.0396

In a second layout: results already given
ASCC3_Q8N3C0_1315_HPPHTELLDLQPLPITALGCK (UniProt Q8N3C0)
  probe-labelled cysteine peptide fold change: 0.0925
ATP13A1_Q9HD20_711_EALECSLK (UniProt Q9HD20)
  probe-labelled cysteine peptide fold change: -0.0396

From the supplement of paper PMC12067093, “Discovery and optimisation of a covalent ligand for TRIM25 and its application to targeted protein ubiquitination” (Chemical Science, 2025)
